Paper PMC10935964
No constants are given. Whether binding was seen depends on the method and setting. Binding seen in cells or lysates may run through a third protein. Some results given as binding are weak or reduced against the parent protein; the word gives no strength.

By UniProt entry, the sequences of proteins in these tests, tags left out.
UniProt Q69022: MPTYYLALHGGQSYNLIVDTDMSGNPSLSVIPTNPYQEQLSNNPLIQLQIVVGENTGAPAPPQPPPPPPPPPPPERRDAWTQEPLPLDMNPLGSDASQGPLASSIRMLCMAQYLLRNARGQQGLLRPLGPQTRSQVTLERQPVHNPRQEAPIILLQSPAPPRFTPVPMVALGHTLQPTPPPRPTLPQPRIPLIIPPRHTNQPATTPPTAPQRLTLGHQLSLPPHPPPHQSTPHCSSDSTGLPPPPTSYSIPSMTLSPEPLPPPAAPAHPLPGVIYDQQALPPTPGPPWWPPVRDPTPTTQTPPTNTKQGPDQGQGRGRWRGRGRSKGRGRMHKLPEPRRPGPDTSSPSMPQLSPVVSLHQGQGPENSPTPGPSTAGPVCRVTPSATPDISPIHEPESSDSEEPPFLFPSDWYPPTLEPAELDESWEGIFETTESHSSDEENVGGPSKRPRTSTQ
UniProt Q06330: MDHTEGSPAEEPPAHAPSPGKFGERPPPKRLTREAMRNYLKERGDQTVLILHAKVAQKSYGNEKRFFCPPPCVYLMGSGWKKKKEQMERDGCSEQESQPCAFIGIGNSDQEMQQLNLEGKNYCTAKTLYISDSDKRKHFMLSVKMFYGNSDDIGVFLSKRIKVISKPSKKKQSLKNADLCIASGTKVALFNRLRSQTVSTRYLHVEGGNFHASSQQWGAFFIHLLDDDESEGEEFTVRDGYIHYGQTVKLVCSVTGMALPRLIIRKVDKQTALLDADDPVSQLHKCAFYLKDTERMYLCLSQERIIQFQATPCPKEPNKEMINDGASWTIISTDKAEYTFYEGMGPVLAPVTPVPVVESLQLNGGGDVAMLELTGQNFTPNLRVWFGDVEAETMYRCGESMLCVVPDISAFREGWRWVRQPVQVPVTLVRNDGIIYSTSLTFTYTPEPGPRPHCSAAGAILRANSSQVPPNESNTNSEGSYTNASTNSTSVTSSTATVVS

Target: Epstein-Barr Nuclear Antigen 2 type 2 (EBV-2, AG876 virus, in AG876 cells) (Epstein-Barr virus type 2, strain AG876 (endogenous in infected AG876 cells)) (UniProt Q69022)
Assay: co-IP; nuclear lysates (500 ug) of Akata (EBV negative), GM12878 (EBV-1) and AG876 (EBV-2); IP with anti-EBNA2 antibody PE2 and Protein A/G beads in Co-IP buffer (1% NP-40, 150 mM NaCl, 10 mM Tris-HCl pH 7.4, 1 mM EDTA, 3% glycerol), 4 C; blots for RBPJ, EBF1, SPI1

## recombination signal binding protein for immunoglobulin kappa J region (RBPJ) (from UniProt Q06330 1-500)
  binding: binds
